Experimental data as given in publication PMC6712773.
These are yes or no findings as the source states them, for the method shown. Binding seen in cells or lysates may run through a third protein. Some results given as binding are weak or reduced against the parent protein; the word gives no strength.

Chains of the proteins cited; added tags and fusions are not shown.
UniProt B2RYU7: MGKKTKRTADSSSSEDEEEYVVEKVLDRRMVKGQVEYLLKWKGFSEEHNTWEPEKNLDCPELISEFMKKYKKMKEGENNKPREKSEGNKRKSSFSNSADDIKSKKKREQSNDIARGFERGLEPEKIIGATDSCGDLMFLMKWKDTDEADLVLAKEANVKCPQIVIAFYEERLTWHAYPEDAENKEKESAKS
UniProt P52631: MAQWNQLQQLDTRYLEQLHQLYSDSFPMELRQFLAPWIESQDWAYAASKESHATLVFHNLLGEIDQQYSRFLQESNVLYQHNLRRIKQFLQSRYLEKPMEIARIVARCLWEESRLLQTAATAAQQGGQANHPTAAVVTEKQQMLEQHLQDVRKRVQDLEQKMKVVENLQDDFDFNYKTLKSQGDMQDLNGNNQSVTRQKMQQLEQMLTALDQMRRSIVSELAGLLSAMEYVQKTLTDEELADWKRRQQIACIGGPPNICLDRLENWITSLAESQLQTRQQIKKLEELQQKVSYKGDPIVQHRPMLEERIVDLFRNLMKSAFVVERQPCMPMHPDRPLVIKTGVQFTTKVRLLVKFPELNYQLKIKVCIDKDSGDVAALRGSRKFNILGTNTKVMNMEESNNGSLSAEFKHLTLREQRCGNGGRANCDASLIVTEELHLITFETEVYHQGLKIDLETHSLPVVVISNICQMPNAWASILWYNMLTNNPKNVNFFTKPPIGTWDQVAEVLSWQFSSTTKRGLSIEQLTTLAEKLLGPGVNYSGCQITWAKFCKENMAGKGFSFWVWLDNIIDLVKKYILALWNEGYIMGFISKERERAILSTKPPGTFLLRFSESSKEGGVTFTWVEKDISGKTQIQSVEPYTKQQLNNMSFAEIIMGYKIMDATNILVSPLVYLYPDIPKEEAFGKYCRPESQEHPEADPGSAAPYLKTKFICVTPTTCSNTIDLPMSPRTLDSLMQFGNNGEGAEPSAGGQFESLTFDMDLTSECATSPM

Molecular target: Heterochromatin Protein 1 alpha (HP1α) (rat (endogenous in primary cortical neurons)) (UniProt B2RYU7)
Assay: co-IP; whole-cell RIPA extracts of 9-DIV primary rat cortical neurons; 300 ug protein incubated overnight at 4 °C with HP1α antibody (CST #2616), magnetic beads (Active Motif Universal Magnetic Co-IP kit), blot for STAT3 (CST #4904); cells treated 30 min with water or 0.7 nM BDNF, with 1 h pretreatment with DMSO, 10 uM WP1066 or 10 uM Ruxolitinib

- binding: binds
Substance: Signal Transducer and Activator of Transcription 3 (STAT3) (from UniProt P52631 1-770)
